# Results are given in words; binding and its absence hold for the method and conditions named. Binding calls can cover weak binding; strength is not graded here.
# Biological target: rat endothelin receptor (rat)
# Experiment: binding to COS-7 cells transfected with the isolated cDNA clone
binder,measurement,value
"CTCFTYKDKECVYYCHLDIIW (peptide, UniProt P14138 97-117, looked up) [endothelin-3]",binding,binds

# Source: patent EP0480381A1
